Test results reported in PMC12134178.
These are yes or no findings as the source states them, for the method shown. Binding seen in cells or lysates may run through a third protein. Some binding calls cover weakened binding; strength is not graded here. For some of these results: Where a sequence is shown, tags or fusion partners need not be part of it.

Protein sequences, listed by entry. Tags and fused reporters are not part of them.
UniProt P97287: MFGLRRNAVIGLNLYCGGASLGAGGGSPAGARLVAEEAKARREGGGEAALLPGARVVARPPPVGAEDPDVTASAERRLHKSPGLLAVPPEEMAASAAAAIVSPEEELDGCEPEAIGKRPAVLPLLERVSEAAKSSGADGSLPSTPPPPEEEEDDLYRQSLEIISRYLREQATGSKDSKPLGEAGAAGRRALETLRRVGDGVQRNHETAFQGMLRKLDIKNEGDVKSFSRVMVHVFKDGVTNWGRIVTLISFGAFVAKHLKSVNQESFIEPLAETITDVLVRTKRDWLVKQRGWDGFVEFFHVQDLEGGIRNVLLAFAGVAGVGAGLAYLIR
UniProt Q07817: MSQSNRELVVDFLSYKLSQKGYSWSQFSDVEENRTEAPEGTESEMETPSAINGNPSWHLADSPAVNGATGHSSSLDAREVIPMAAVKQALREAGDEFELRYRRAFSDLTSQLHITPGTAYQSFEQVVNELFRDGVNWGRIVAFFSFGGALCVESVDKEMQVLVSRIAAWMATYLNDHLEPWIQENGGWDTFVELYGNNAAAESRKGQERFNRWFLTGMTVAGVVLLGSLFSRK
UniProt P10415: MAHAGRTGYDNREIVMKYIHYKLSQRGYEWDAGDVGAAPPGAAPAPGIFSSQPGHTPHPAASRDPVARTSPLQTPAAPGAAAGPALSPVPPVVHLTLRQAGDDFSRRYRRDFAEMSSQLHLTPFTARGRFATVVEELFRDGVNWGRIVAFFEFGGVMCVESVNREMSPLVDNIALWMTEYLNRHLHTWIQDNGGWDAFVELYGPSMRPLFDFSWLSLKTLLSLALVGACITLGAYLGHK

Experiments:
Assay in all cases: proximity ligation; Duolink-PLA in fixed Casp9−/− MEFs 24 h after transfection with the tagged Bcl-2 family protein and GFP-MAO; anti-nesprin-2G antibody with anti-Flag or anti-HA antibody; dots per cell area relative to the empty-vector control
HA-Bak = biological target: T1, HA-Bak (UniProt Q16611)
T1 sequence: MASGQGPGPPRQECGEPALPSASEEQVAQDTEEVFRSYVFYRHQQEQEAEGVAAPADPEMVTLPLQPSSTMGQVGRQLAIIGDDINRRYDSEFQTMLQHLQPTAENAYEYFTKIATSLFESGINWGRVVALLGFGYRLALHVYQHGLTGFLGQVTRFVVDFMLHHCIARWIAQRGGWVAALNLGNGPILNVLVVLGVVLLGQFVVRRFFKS

Flag-Mcl-1 = Flag-Mcl-1 (UniProt P97287)
Flag-Bcl-xL = Flag-Bcl-xL (UniProt Q07817)
Flag-hBcl-2 (human) = Flag-hBcl-2 (human) (UniProt P10415)

nesprin-2 giant (Nes2G), endogenous (from UniProt Q6ZWQ0-1 1-6874)
binding (HA-Bak): binds
binding (Flag-Mcl-1): no binding
binding (Flag-Bcl-xL): binds
binding (Flag-hBcl-2 (human)): binds
